# Some peptides are written in HELM: one residue between dots, names in brackets for other building blocks, links after the first $. Starred links: 1 amine or outer side, 2 acyl side, 3 side chain; linkers in the order of their positions; H or OH if unused. Non-standard residues stand in square brackets, D forms with d. *: point of attachment. pGlu = O=C1CC[C@@H](C(=O)O)N1; Suc = O=C(CCC(=O)[*:2])[*:1]; Boc = CC(C)(C)OC(=O)*
# Test: general procedure: solution-phase peptide synthesis; azide process; mixed anhydride process; OSu active esters
Substance,step yield (late stage modification step) [%],step yield (coupling step) [%],further results
PEPTIDE1{[pGlu].A.[Tyr(SO3H)].G.W.M.D.F.[am]}$$$$V2.0,52.2,,
Boc-MGWM-NH2,,74.9,
Boc-Gly-Asp-Tyr-Met-Gly-Trp-Met-Asp-Phe-NH2,,79.5,
Suc-YM[dW]WMDF-NH2,92.8,,
PEPTIDE1{[Suc].[Tyr(SO3H)].M.G.W.M.D.[am]}$$$$V2.0,63.6,,
Boc-β-Ala-Asp-Tyr-Met-Gly-Trp-Met-Asp-Phe-NH2,,79.1,
PEPTIDE1{[bAla].D.[Tyr(SO3H)].M.G.W.M.D.F.[am]}$$$$V2.0,50.1,,
Pht-Tyr-Met-D-Trp-Trp-Met-Asp-Phe-NH2,97.4,,
[pGlu]AYGWMDF-NH2,,84.1,
Boc-M[dW]WMDF-NH2,,76.7,
PEPTIDE1{[Glt].A.[Tyr(SO3H)].G.W.M.D.F.[am]}$$$$V2.0,50.2,,
Boc-MGWMD-NH2,,93.1,
PEPTIDE1{[Suc].[Tyr(SO3H)].M.[dW].W.M.D.F.[am]}$$$$V2.0,50.9,,
Suc-YM[dA]WMDF-NH2,95.8,,
PEPTIDE1{[Glt].[Tyr(SO3H)].M.[dW].W.M.D.F.[am]}$$$$V2.0,49.3,,
Boc-D-Ala-Trp-Met-Asp-Phe-NH2,,96.2,
PEPTIDE1{[Suc].[Tyr(SO3H)].M.G.W.M.[am]}$$$$V2.0,50.0,,
Suc-Tyr(SO3 H)-Met-D-Ala-Trp-Met-Asp-Phe-NH2,54.9,,
Boc-YM[dA]WMDF-NH2,,71.5,
Glt-Tyr-Met-D-Trp-Trp-Met-Asp-Phe-NH2,83.9,,
Boc-M[dA]WMDF-NH2,,69.2,
PEPTIDE1{G.D.[Tyr(SO3H)].M.G.W.M.D.F.[am]}$$$$V2.0,50.8,,
Boc-YMGWMD-NH2,,86.5,
Suc-YMGWM-NH2,,,"step yield (late stage modification step, run 1): 77.1%; step yield (late stage modification step, run 2): 72.8%"
Pht-Tyr(SO3 H)-Met-D-Trp-Trp-Met-Asp-Phe-NH2,37.6,,
Boc-YM[dW]WMDF-NH2,,85.2,
Glt-Ala-Tyr-Gly-Trp-Met-Asp-Phe-NH2,76.1,,
Boc-D-Trp-Trp-Met-Asp-Phe-NH2,,61.1,
Boc-YMGWM-NH2,,63.1,

# Source: patent US4530836A (Amano Pharmaceutical Co., Ltd., priority 1983, dated 1985)
